Data from PMC9730683.
These are yes or no findings as the source states them, for the method shown. In cells and extracts the contact can be indirect. A yes stands for co-enrichment or nearness to the bait. Other partners may have been found.

Chains of the proteins cited; added tags and fusions are not shown.
UniProt Q6UW68: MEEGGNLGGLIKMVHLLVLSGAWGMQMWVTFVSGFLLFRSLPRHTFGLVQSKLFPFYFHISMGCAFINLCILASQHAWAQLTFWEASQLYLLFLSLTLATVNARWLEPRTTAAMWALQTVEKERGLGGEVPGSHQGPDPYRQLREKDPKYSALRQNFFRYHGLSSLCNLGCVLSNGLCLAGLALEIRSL

Target: T1, glycoprotein C (gC) of oHSV (oHSV (oncolytic herpes simplex virus; type and strain not stated)) (UniProt P10228)
T1 sequence: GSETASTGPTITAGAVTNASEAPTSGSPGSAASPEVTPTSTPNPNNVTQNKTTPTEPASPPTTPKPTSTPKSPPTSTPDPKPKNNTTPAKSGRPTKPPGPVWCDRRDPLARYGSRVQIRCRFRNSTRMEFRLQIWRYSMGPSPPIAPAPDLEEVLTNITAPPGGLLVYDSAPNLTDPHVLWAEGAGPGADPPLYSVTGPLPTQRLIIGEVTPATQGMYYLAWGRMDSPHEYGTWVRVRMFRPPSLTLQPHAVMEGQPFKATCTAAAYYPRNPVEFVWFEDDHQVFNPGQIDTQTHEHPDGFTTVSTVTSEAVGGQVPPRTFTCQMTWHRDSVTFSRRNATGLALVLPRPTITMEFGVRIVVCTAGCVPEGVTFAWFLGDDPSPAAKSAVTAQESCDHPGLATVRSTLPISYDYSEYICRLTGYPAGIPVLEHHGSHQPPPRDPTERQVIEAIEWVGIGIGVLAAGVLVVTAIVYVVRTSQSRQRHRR
Experiment: affinity purification with mass spectrometry; IP of OVTOKO, TR127 and JHOC cell proteins with antibodies against oHSV gC (and gD); SDS-PAGE, Coomassie; the 25 kDa band from OVTOKO cells identified by mass spectrometry

For TMEM205 (from UniProt Q6UW68 1-189), the binding was “binds”.
